Two molecules from article PMC9724678 can be followed below.

Protein sequences, listed by entry. Tags and fused reporters are not part of them.
UniProt Q86VP1: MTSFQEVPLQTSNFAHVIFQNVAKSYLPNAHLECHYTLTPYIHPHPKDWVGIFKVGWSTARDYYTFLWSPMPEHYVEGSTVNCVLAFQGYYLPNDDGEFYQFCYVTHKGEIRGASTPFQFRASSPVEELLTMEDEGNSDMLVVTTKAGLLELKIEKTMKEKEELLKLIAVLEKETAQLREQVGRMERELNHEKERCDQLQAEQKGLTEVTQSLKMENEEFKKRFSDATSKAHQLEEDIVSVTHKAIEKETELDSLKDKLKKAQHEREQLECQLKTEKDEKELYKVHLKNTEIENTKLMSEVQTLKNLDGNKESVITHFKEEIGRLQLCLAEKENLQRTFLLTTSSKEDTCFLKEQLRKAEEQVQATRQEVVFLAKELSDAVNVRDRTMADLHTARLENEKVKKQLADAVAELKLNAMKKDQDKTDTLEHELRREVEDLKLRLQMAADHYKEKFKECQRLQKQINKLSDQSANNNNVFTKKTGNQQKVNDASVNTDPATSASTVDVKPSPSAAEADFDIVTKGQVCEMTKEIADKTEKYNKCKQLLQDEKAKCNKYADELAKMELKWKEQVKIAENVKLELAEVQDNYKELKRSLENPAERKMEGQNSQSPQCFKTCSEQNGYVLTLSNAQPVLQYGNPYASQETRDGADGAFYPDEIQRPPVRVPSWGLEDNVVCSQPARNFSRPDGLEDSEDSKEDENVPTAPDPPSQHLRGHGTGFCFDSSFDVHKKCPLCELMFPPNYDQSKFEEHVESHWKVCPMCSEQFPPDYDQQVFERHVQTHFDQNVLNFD

For test [1], the target named is GFP-T6BP (TAX1BP1 / TRAF6-binding protein fused to GFP) (UniProt Q86VP1). Kind of test: affinity purification with mass spectrometry; GFP-T6BP or GFP alone from transfected HeLa-CIITA lysate (1% Triton X-100 buffer) on GFP-Trap agarose magnetic beads, 1 h 4°C, on-bead digestion, LC-MS/MS; three biological replicates; fold change ≥10, SAINT ≥0,8.
The target of test [2] is GFP-T6BP (TAX1BP1 / TRAF6-binding protein fused to GFP), Q86VP1. Described as above. The settings on record: remark: other sources report otherwise.

No constants are given. Whether binding was seen depends on the method and setting. Binding seen in cells or lysates may run through a third protein. A yes stands for co-enrichment or nearness to the bait. Other partners may have been found. For some assays here: A no says only that the protein was not detected with the bait.

B1: DUB UPS15 (protein, UniProt Q9Y4E8 1-981)
chain: MAEGGAADLDTQRSDIATLLKTSLRKGDTWYLVDSRWFKQWKKYVGFDSWDKYQMGDQNVYPGPIDNSGLLKDGDAQSLKEHLIDELDYILLPTEGWNKLVSWYTLMEGQEPIARKVVEQGMFVKHCKVEVYLTELKLCENGNMNNVVTRRFSKADTIDTIEKEIRKIFSIPDEKETRLWNKYMSNTFEPLNKPDSTIQDAGLYQGQVLVIEQKNEDGTWPRGPSTPKSPGASNFSTLPKISPSSLSNNYNNMNNRNVKNSNYCLPSYTAYKNYDYSEPGRNNEQPGLCGLSNLGNTCFMNSAIQCLSNTPPLTEYFLNDKYQEELNFDNPLGMRGEIAKSYAELIKQMWSGKFSYVTPRAFKTQVGRFAPQFSGYQQQDCQELLAFLLDGLHEDLNRIRKKPYIQLKDADGRPDKVVAEEAWENHLKRNDSIIVDIFHGLFKSTLVCPECAKISVTFDPFCYLTLPLPMKKERTLEVYLVRMDPLTKPMQYKVVVPKIGNILDLCTALSALSGIPADKMIVTDIYNHRFHRIFAMDENLSSIMERDDIYVFEININRTEDTEHVIIPVCLREKFRHSSYTHHTGSSLFGQPFLMAVPRNNTEDKLYNLLLLRMCRYVKISTETEETEGSLHCCKDQNINGNGPNGIHEEGSPSEMETDEPDDESSQDQELPSENENSQSEDSVGGDNDSENGLCTEDTCKGQLTGHKKRLFTFQFNNLGNTDINYIKDDTRHIRFDDRQLRLDERSFLALDWDPDLKKRYFDENAAEDFEKHESVEYKPPKKPFVKLKDCIELFTTKEKLGAEDPWYCPNCKEHQQATKKLDLWSLPPVLVVHLKRFSYSRYMRDKLDTLVDFPINDLDMSEFLINPNAGPCRYNLIAVSNHYGGMGGGHYTAFAKNKDDGKWYYFDDSSVSTASEDQIVSKAAYVLFYQRQDTFSGTGFFPLDRETKGASAATGIPLESDEDSNDNDNDIENENCMHTN
Turning to B1, the binding result in test [1] is listed as “binds”.

B2: myosin-VI, Q9UM54 1-1294 (protein)
chain: MEDGKPVWAPHPTDGFQMGNIVDIGPDSLTIEPLNQKGKTFLALINQVFPAEEDSKKDVEDNCSLMYLNEATLLHNIKVRYSKDRIYTYVANILIAVNPYFDIPKIYSSEAIKSYQGKSLGTRPPHVFAIADKAFRDMKVLKMSQSIIVSGESGAGKTENTKFVLRYLTESYGTGQDIDDRIVEANPLLEAFGNAKTVRNNNSSRFGKFVEIHFNEKSSVVGGFVSHYLLEKSRICVQGKEERNYHIFYRLCAGASEDIREKLHLSSPDNFRYLNRGCTRYFANKETDKQILQNRKSPEYLKAGSMKDPLLDDHGDFIRMCTAMKKIGLDDEEKLDLFRVVAGVLHLGNIDFEEAGSTSGGCNLKNKSAQSLEYCAELLGLDQDDLRVSLTTRVMLTTAGGTKGTVIKVPLKVEQANNARDALAKTVYSHLFDHVVNRVNQCFPFETSSYFIGVLDIAGFEYFEHNSFEQFCINYCNEKLQQFFNERILKEEQELYQKEGLGVNEVHYVDNQDCIDLIEAKLVGILDILDEENRLPQPSDQHFTSAVHQKHKDHFRLTIPRKSKLAVHRNIRDDEGFIIRHFAGAVCYETTQFVEKNNDALHMSLESLICESRDKFIRELFESSTNNNKDTKQKAGKLSFISVGNKFKTQLNLLLDKLRSTGASFIRCIKPNLKMTSHHFEGAQILSQLQCSGMVSVLDLMQGGYPSRASFHELYNMYKKYMPDKLARLDPRLFCKALFKALGLNENDYKFGLTKVFFRPGKFAEFDQIMKSDPDHLAELVKRVNHWLTCSRWKKVQWCSLSVIKLKNKIKYRAEACIKMQKTIRMWLCKRRHKPRIDGLVKVGTLKKRLDKFNEVVSVLKDGKPEMNKQIKNLEISIDTLMAKIKSTMMTQEQIQKEYDALVKSSEELLSALQKKKQQEEEAERLRRIQEEMEKERKRREEDEKRRRKEEEERRMKLEMEAKRKQEEEERKKREDDEKRIQAEVEAQLARQKEEESQQQAVLEQERRDRELALRIAQSEAELISDEAQADLALRRSLDSYPVSKNDGTRPKMTPEQMAKEMSEFLSRGPAVLATKAAAGTKKYDLSKWKYAELRDTINTSCDIELLAACREEFHRRLKVYHAWKSKNKKRNTETEQRAPKSVTDYDFAPFLNNSPQQNPAAQIPARQREIEMNRQQRFFRIPFIRPADQYKDPQSKKKGWWYAHFDGPWIARQMELHPDKPPILLVAGKDDMEMCELNLEETGLTRKRGAEILPRQFEEIWERCGGIQYLQNAIESRQARPTYATAMLQSLLK
On to B2, for which, in test [2], the binding result was “no binding”.
